Test results from the supplement of paper PMC10032668.
This is one part of the list. Only hits are listed; about a third recur on repeated control peptides.

Chains of the proteins cited; added tags and fusions are not shown.
ANAPC1, Q9H1A4, UniProt Q9H1A4, whole entry: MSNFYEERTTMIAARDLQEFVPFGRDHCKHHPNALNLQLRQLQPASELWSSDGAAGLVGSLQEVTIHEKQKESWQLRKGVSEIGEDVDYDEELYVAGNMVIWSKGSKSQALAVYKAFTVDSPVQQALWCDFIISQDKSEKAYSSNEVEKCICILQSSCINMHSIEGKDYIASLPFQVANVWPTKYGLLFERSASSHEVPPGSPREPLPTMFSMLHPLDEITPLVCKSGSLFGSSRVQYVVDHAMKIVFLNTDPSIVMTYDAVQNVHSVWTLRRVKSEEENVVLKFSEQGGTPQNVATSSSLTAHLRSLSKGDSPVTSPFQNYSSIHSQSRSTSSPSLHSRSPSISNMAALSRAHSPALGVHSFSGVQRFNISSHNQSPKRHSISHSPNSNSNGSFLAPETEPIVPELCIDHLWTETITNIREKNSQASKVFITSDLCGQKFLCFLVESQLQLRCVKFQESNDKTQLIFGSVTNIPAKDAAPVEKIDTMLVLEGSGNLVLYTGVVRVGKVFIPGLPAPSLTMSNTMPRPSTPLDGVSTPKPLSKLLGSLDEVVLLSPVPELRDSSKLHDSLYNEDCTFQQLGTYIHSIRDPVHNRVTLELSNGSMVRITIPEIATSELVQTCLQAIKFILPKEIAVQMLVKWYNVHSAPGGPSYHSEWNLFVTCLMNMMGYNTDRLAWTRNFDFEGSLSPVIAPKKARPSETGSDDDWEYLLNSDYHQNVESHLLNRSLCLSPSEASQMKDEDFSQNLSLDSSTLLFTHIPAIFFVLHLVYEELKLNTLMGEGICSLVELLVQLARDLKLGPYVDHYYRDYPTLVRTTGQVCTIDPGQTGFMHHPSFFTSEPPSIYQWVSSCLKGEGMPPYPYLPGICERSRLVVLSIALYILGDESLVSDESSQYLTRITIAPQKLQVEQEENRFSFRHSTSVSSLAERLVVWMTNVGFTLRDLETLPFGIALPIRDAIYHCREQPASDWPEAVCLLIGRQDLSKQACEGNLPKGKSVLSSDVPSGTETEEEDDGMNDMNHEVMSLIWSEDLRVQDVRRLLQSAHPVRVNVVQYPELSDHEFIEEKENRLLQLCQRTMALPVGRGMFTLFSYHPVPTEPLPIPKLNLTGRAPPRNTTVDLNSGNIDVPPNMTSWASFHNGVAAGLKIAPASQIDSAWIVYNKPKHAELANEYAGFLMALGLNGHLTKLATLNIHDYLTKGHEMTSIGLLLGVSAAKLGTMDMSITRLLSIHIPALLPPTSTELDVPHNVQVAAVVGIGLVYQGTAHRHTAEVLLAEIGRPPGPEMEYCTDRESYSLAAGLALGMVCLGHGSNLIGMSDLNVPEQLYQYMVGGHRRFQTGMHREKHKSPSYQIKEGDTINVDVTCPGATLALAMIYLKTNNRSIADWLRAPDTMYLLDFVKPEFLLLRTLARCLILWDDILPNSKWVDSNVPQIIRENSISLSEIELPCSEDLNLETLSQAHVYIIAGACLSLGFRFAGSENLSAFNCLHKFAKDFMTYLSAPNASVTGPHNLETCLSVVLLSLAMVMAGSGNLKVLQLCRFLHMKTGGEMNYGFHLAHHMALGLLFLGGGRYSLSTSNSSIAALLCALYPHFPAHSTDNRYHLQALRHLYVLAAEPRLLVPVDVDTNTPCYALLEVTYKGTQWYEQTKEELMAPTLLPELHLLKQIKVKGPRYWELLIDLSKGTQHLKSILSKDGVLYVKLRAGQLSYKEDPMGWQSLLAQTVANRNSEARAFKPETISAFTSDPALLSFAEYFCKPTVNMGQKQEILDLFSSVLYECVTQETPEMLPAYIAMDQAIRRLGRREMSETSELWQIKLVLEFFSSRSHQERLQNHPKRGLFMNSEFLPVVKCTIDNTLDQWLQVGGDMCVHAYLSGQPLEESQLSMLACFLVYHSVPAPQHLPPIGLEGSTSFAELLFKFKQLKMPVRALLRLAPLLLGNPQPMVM
CD2AP, Q9Y5K6, UniProt Q9Y5K6, whole entry: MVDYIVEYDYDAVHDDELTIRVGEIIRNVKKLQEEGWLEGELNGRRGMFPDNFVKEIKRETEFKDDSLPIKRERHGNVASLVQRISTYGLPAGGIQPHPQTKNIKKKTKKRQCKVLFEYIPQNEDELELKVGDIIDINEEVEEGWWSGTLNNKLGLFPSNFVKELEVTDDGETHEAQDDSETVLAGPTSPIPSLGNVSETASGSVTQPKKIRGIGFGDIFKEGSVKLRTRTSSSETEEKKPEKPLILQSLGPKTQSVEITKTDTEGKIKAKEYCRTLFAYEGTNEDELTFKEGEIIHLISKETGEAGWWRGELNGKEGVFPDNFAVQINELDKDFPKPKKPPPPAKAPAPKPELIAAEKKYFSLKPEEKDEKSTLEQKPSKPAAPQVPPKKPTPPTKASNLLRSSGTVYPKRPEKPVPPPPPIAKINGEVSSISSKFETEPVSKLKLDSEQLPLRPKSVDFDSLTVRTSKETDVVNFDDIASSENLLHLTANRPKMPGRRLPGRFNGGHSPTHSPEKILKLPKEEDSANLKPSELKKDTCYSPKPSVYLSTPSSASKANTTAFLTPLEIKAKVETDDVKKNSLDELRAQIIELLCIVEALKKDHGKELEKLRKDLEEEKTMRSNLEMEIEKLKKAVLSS
NDUFA6, P56556, UniProt P56556, whole entry: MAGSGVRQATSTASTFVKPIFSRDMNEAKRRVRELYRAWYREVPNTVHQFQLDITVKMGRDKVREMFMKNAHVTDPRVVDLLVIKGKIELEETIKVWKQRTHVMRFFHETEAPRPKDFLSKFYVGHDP
SMC2, O95347, UniProt O95347, whole entry: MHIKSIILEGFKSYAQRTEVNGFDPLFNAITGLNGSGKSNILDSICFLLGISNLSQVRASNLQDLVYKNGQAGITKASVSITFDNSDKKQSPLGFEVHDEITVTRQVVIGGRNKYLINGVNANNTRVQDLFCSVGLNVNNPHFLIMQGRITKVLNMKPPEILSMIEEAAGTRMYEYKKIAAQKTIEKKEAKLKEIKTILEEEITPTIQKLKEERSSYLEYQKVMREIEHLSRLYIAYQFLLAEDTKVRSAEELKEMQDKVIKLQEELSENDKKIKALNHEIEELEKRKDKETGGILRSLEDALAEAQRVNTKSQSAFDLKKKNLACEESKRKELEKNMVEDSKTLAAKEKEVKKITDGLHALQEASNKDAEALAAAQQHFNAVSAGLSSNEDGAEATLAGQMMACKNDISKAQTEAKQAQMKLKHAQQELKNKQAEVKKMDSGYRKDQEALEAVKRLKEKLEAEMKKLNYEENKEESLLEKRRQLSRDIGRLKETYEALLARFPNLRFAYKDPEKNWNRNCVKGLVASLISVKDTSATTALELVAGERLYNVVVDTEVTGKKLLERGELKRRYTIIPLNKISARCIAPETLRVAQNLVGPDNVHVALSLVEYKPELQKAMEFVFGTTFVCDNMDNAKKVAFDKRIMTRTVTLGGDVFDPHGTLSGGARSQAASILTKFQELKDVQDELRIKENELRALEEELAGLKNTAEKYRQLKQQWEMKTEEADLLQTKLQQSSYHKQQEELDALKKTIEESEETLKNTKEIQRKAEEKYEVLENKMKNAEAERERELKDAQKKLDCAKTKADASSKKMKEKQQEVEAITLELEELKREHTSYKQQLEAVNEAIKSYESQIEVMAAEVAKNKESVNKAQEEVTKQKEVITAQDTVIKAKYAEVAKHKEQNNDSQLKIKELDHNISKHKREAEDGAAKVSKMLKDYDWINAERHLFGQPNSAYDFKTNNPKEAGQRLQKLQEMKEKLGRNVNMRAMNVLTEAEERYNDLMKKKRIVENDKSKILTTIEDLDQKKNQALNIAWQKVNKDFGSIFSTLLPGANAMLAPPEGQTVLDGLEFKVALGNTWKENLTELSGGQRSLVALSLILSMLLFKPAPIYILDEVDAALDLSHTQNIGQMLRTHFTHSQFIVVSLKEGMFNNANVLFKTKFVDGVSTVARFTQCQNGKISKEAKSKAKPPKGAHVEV
TARDBP, Q13148, UniProt Q13148, whole entry: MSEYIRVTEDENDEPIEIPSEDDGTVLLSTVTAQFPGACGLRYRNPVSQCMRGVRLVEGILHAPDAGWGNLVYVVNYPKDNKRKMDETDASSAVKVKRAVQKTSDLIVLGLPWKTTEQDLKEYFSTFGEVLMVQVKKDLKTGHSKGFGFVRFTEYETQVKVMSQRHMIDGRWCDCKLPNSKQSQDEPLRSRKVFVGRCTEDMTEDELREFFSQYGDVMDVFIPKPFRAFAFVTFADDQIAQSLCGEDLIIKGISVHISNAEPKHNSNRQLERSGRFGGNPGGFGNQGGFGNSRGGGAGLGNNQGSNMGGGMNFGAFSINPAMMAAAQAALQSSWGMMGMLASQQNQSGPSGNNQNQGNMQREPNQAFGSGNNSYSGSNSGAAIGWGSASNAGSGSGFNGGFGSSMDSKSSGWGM
ATXN2, Q99700, UniProt Q99700, whole entry: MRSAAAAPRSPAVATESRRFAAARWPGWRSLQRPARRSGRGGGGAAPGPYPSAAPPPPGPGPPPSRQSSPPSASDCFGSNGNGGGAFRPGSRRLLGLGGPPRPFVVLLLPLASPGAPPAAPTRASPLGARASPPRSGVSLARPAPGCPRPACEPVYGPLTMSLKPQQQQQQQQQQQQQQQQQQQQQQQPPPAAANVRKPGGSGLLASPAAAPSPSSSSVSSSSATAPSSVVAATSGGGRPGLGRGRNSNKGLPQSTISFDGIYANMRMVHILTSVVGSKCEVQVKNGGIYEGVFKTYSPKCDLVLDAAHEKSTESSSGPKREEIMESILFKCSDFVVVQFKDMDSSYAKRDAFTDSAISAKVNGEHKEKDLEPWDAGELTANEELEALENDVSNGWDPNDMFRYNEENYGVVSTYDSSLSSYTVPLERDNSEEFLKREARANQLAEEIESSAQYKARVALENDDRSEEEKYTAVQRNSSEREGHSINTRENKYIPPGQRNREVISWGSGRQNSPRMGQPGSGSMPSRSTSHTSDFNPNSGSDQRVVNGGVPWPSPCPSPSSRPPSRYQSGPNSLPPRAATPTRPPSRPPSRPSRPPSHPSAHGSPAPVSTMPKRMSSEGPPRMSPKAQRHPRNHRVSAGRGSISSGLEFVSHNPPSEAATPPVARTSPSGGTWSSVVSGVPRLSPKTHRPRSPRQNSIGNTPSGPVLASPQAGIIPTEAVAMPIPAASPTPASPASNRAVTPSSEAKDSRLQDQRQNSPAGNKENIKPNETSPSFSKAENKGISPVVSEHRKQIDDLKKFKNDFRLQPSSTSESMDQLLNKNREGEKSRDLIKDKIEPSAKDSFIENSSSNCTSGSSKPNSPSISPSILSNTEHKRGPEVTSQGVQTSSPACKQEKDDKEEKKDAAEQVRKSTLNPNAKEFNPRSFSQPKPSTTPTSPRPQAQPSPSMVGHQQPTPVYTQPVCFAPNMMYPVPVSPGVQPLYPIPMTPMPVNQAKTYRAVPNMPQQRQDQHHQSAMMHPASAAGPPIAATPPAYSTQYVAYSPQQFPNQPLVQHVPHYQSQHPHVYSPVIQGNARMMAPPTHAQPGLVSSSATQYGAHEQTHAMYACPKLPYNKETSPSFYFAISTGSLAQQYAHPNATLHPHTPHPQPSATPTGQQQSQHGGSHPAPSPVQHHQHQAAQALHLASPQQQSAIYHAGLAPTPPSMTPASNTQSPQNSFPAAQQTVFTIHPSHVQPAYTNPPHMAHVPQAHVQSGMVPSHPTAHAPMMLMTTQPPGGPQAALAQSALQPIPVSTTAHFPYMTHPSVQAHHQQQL
GTF2F1, P35269, UniProt P35269, whole entry: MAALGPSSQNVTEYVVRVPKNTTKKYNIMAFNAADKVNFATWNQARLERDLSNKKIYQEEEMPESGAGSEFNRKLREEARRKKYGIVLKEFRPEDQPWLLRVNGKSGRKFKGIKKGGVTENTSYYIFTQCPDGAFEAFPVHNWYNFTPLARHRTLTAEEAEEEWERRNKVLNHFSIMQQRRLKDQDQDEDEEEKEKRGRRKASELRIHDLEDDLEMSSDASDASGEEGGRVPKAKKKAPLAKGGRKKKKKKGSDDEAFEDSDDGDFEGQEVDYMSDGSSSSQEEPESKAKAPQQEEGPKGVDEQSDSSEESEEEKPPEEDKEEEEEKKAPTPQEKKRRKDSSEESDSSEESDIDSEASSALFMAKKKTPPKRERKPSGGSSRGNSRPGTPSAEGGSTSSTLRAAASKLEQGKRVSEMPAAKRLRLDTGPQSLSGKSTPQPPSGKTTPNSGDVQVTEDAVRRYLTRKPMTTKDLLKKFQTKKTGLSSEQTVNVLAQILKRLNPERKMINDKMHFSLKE
NDUFA10, O95299, UniProt O95299, whole entry: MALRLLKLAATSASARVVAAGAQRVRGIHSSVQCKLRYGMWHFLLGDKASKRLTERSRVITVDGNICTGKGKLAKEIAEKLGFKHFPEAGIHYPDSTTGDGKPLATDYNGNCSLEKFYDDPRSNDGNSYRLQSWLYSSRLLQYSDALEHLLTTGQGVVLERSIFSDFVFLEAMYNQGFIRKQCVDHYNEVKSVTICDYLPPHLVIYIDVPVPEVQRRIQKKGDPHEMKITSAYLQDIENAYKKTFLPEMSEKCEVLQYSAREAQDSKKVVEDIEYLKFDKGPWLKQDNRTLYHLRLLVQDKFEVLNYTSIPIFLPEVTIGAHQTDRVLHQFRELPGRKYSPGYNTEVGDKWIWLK

Legend:
Test in all cases: PRISMA enrichment of interactor (LFQ) in peptide spot vs all other peptide spots (log2 fold change); higher = stronger / more specific binding of the interactor to the peptide
ANAPC1, Q9H1A4 = molecular target: ANAPC1, Q9H1A4
Protocol: (§1)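 PRISMA: 15-aa overlapping tiles (offset 8 aa) of 60 microproteins, plus SOS1/GLUT1 control peptides, were spot-synthesized on cellulose membranes in triplicate. Membranes were incubated with benzonase-treated HEK293T lysate, and bound proteins were identified by LC-MS/MS with LFQ. Enrichment is the log2 fold change of each protein in one spot versus all other spots. Only interactors passing the significance cutoff are listed.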

ARHGEF2, Q92974 = molecular target: ARHGEF2, Q92974
Protocol: as §1

AUP1, Q9Y679 = molecular target: AUP1, Q9Y679
Protocol: as §1

BAZ1B, Q9UIG0 = molecular target: BAZ1B, Q9UIG0
Protocol: as §1

C7orf50, Q9BRJ6 = molecular target: C7orf50, Q9BRJ6
Protocol: as §1

CD2AP, Q9Y5K6 = molecular target: CD2AP, Q9Y5K6
Protocol: as §1

CIAO1, O76071 = molecular target: CIAO1, O76071
Protocol: as §1

CLUH, O75153 = molecular target: CLUH, O75153
Protocol: as §1

DPM1, O60762 = molecular target: DPM1, O60762
Protocol: as §1

EDF1, O60869 = molecular target: EDF1, O60869
Protocol: as §1

GLRX3, O76003 = molecular target: GLRX3, O76003
Protocol: as §1

HP, P00738 = molecular target: HP, P00738
Protocol: as §1

IRS4, O14654 = molecular target: IRS4, O14654
Protocol: as §1

MCRIP2, Q9BUT9 = molecular target: MCRIP2, Q9BUT9
Protocol: as §1

MLLT11, Q13015 = molecular target: MLLT11, Q13015
Protocol: as §1

NDUFA6, P56556 = molecular target: NDUFA6, P56556
Protocol: as §1

NUFIP2, Q7Z417 = molecular target: NUFIP2, Q7Z417
Protocol: as §1

PICALM, Q13492 = molecular target: PICALM, Q13492
Protocol: as §1

PYCR3, Q53H96 = molecular target: PYCR3, Q53H96
Protocol: as §1

PYM1, Q9BRP8 = molecular target: PYM1, Q9BRP8
Protocol: as §1

RACGAP1, Q9H0H5 = molecular target: RACGAP1, Q9H0H5
Protocol: as §1

RBIS, Q8N0T1 = molecular target: RBIS, Q8N0T1
Protocol: as §1

RGS10, O43665 = molecular target: RGS10, O43665
Protocol: as §1

SMC2, O95347 = molecular target: SMC2, O95347
Protocol: as §1

[1] = substrate: SSB, P05455
Protocol: as §1

SUGT1, Q9Y2Z0 = molecular target: SUGT1, Q9Y2Z0
Protocol: as §1

TARDBP, Q13148 = molecular target: TARDBP, Q13148
Protocol: as §1

TIMM44, O43615 = molecular target: TIMM44, O43615
Protocol: as §1

YWHAH, Q04917 = molecular target: YWHAH, Q04917
Protocol: as §1

ZNF616, Q08AN1 = molecular target: ZNF616, Q08AN1
Protocol: as §1

ANKHD1, Q8IWZ3 = molecular target: ANKHD1, Q8IWZ3
Protocol: as §1

ATXN2, Q99700 = molecular target: ATXN2, Q99700
Protocol: as §1

CPSF2, Q9P2I0 = molecular target: CPSF2, Q9P2I0
Protocol: as §1

CSNK2A1, P68400 = molecular target: CSNK2A1, P68400
Protocol: as §1

GTF2F1, P35269 = molecular target: GTF2F1, P35269
Protocol: as §1

MAGT1, Q9H0U3 = molecular target: MAGT1, Q9H0U3
Protocol: as §1

MRPL43, Q8N983 = molecular target: MRPL43, Q8N983
Protocol: as §1

MRPS5, P82675 = molecular target: MRPS5, P82675
Protocol: as §1

NCLN, Q969V3 = molecular target: NCLN, Q969V3
Protocol: as §1

NDUFA10, O95299 = molecular target: NDUFA10, O95299
Protocol: as §1

NUP188, Q5SRE5 = molecular target: NUP188, Q5SRE5
Protocol: as §1

OLA1, Q9NTK5 = molecular target: OLA1, Q9NTK5
Protocol: as §1

SSNA1, O43805 = molecular target: SSNA1, O43805
Protocol: as §1

STK26, Q9P289 = molecular target: STK26, Q9P289
Protocol: as §1

TCEA1, P23193 = molecular target: TCEA1, P23193
Protocol: as §1

WDR5, P61964 = molecular target: WDR5, P61964
Protocol: as §1

RATAASPSTDFPRRT [THAP7]
PRISMA enrichment of interactor (log2) (ANAPC1, Q9H1A4): 6.02 | PRISMA enrichment of interactor (log2) (ARHGEF2, Q92974): 5.62 | PRISMA enrichment of interactor (log2) (AUP1, Q9Y679): 6.06 | PRISMA enrichment of interactor (log2) (BAZ1B, Q9UIG0): 5.96 | PRISMA enrichment of interactor (log2) (C7orf50, Q9BRJ6): 5.16 | PRISMA enrichment of interactor (log2) (CD2AP, Q9Y5K6): 4.95 | PRISMA enrichment of interactor (log2) (CIAO1, O76071): 4 | PRISMA enrichment of interactor (log2) (CLUH, O75153): 3.73 | PRISMA enrichment of interactor (log2) (DPM1, O60762): 4.61 | PRISMA enrichment of interactor (log2) (EDF1, O60869): 5.2 | PRISMA enrichment of interactor (log2) (GLRX3, O76003): 5.16 | PRISMA enrichment of interactor (log2) (HP, P00738): 5.07 | PRISMA enrichment of interactor (log2) (IRS4, O14654): 5.83 | PRISMA enrichment of interactor (log2) (MCRIP2, Q9BUT9): 5.61 | PRISMA enrichment of interactor (log2) (MLLT11, Q13015): 10.1 | PRISMA enrichment of interactor (log2) (NDUFA6, P56556): 6.05 | PRISMA enrichment of interactor (log2) (NUFIP2, Q7Z417): 7.16 | PRISMA enrichment of interactor (log2) (PICALM, Q13492): 6.24 | PRISMA enrichment of interactor (log2) (PYCR3, Q53H96): 6 | PRISMA enrichment of interactor (log2) (PYM1, Q9BRP8): 3.94 | PRISMA enrichment of interactor (log2) (RACGAP1, Q9H0H5): 5.55 | PRISMA enrichment of interactor (log2) (RBIS, Q8N0T1): 7.41 | PRISMA enrichment of interactor (log2) (RGS10, O43665): 3.71 | PRISMA enrichment of interactor (log2) (SMC2, O95347): 5.33 | PRISMA enrichment of interactor (log2) [1]: 5.22 | PRISMA enrichment of interactor (log2) (SUGT1, Q9Y2Z0): 5.14 | PRISMA enrichment of interactor (log2) (TARDBP, Q13148): 7.18 | PRISMA enrichment of interactor (log2) (TIMM44, O43615): 3.97 | PRISMA enrichment of interactor (log2) (YWHAH, Q04917): 7.75 | PRISMA enrichment of interactor (log2) (ZNF616, Q08AN1): 7.7

ATWTGIQRILQVQLH [TBX5-AS1]
PRISMA enrichment of interactor (log2) (ANKHD1, Q8IWZ3): 4.81 | PRISMA enrichment of interactor (log2) (ATXN2, Q99700): 5.37 | PRISMA enrichment of interactor (log2) (CPSF2, Q9P2I0): 4.11 | PRISMA enrichment of interactor (log2) (CSNK2A1, P68400): 5.3 | PRISMA enrichment of interactor (log2) (GTF2F1, P35269): 4.2 | PRISMA enrichment of interactor (log2) (MAGT1, Q9H0U3): 4.59 | PRISMA enrichment of interactor (log2) (MRPL43, Q8N983): 5.11 | PRISMA enrichment of interactor (log2) (MRPS5, P82675): 5.76 | PRISMA enrichment of interactor (log2) (NCLN, Q969V3): 5.73 | PRISMA enrichment of interactor (log2) (NDUFA10, O95299): 4.15 | PRISMA enrichment of interactor (log2) (NUP188, Q5SRE5): 5.92 | PRISMA enrichment of interactor (log2) (OLA1, Q9NTK5): 4.66 | PRISMA enrichment of interactor (log2) (SSNA1, O43805): 5.67 | PRISMA enrichment of interactor (log2) (STK26, Q9P289): 5.15 | PRISMA enrichment of interactor (log2) (TCEA1, P23193): 4.01 | PRISMA enrichment of interactor (log2) (WDR5, P61964): 7.08
